In test [1] the target is T1, KIF1C (endogenous, untagged) (mouse (endogenous in YUMM1.7)) (UniProt O35071).
T1 sequence: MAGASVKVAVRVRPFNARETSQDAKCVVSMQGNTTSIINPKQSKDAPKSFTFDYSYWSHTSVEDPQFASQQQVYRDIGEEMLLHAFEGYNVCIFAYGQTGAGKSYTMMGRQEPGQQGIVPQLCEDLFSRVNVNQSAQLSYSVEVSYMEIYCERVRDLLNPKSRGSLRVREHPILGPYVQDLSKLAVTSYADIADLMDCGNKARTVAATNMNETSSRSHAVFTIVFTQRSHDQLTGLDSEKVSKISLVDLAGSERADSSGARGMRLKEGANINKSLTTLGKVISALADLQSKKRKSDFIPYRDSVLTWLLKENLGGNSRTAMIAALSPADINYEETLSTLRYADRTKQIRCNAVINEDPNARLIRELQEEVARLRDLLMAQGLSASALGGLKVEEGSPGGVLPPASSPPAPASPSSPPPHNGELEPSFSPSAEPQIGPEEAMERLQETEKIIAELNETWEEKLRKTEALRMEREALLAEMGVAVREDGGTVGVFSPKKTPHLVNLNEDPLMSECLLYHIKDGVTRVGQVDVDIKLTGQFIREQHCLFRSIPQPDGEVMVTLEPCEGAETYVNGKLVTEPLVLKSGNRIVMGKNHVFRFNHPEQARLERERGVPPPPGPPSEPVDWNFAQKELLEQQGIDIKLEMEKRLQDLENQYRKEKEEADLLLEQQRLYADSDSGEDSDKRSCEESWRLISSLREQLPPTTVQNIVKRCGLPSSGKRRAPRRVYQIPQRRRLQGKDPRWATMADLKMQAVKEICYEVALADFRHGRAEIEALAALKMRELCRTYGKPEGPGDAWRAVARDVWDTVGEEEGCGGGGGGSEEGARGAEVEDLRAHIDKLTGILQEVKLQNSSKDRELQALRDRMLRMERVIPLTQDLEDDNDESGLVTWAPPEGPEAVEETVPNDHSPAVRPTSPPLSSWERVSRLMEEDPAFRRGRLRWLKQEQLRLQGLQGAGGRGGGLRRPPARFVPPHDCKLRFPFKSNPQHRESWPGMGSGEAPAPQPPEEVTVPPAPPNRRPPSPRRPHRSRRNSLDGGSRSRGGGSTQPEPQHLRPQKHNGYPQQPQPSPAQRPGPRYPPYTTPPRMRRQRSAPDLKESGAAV
Briefly: co-IP; α-KIF1C antibody (2 μg), protein G Dynabeads, lysates of untagged Kif1c+/+ and Kif1c ΔGA1,2 YUMM1.7 cells (3-4 mg total protein), Western blot; washes 50 mM Tris pH 7.4, 150 mM NaCl, 0.02% NP-40. On the technique in general: In western blotting, separated proteins are transferred to a membrane and probed.

Amino acid sequences for entries named in this document (tags omitted).
UniProt Q60598: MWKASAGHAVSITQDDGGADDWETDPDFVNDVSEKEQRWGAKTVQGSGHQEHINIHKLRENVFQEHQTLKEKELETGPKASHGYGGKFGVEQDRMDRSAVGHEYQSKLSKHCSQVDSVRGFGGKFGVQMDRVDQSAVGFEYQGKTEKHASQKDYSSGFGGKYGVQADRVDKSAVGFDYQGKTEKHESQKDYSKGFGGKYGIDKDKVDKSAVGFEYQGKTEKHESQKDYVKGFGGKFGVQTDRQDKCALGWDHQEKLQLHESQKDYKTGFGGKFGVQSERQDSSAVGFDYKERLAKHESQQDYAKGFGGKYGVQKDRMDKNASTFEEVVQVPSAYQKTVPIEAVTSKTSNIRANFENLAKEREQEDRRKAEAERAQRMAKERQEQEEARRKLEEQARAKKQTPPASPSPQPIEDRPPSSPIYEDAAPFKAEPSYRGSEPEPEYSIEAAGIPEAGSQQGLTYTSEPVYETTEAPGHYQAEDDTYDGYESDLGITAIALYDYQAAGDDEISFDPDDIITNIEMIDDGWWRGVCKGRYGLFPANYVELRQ

In test [2] the target is T2, KIF1C:mCherry (endogenous KIF1C tagged at the C terminus with mCherry) (mouse (endogenous in YUMM1.7)) (UniProt O35071).
T2 sequence: T1 sequence
The experiment in a line: co-IP; α-mCherry antibody (10 μg, Invitrogen 16D7), protein G Dynabeads, lysates of KIF1C:mCherry-tagged YUMM1.7 cell lines (+/+ and ΔGA1,2), Western blot; washes 50 mM Tris pH 7.4, 150 mM NaCl, 0.02% NP-40.

These are yes or no findings as the source states them, for the method shown. Binding seen in cells or lysates may run through a third protein. Some binding calls cover weakened binding; strength is not graded here. Where a sequence is shown, tags or fusion partners need not be part of it.

TPM1 (from UniProt P58771 1-284): the binding entry in test [1] and in test [2] was “binds” each time.
Consider CTTN (from UniProt Q60598 1-546), for which the binding result in test [1] and in test [2] was “binds” each time.

For the origin of these results see article PMC10111864.
